The assay concerns the target mouse TrkB.hFc (mouse). As to the kind of experiment: blocking ELISA: constant mouse TrkB.hFc (REGN2277) pre-mixed with antibody, binding to plate-coated BDNF.

No constants are given. Whether binding was seen depends on the method and setting. Some results given as binding are weak or reduced against the parent protein; the word gives no strength.

The values below come from US20190161551A1.

B1: M2aM14179N (antibody, mouse IgG2a, kappa, V domains shown)
VH: EVQLQQSGPELVKPGASVKISCKASGYTLTDYYMNWVKQSHGKSLEWIGDINPNNGGTSYNQKFKGKATLTVDKSSSTAYMELRSLTSEDSAVYYCARGAYYSNYFDYWGQGTTLTVSS
VL: DIVMSQSPSSLAVSAGEKVTMSCKSSQSLLNSRTRKNYLAWYQQKPGQSPKLLIYWASTRESGVPDRFTGSGSGTDFTLTISSVQAEDLAVYYCKQSYILFTFGSGTQLEIKR
Turning to B1, the binding result is reported as “binds”.

B2: M2aM14173N (antibody, mouse IgG2a, kappa, V domains shown)
VH: NVSLVESGGGSVKPGGSLQLSCAASGFTFSSSAMSWIRQTPEMRLEWVATISDRGSYTYYPDSVEGRFTISRDNAKNILYLQMSHLMSEDTAMYYCARGKGEKAYYTAFFAYWGQGSLVTVSA
VL: DIQMTQSPASLSASVGETVTITCRASENIYSYLAWYQQKPGKSPHLLVHNAETLAEGVPSRFSGSGSGPQFSLKINSLQPGDSGTYYCQHHYSSPWTFGGGTKLEIKR
Take B2: the binding entry is “binds”.
